This note sets out measurements from the supplement of paper PMC12067093, “Discovery and optimisation of a covalent ligand for TRIM25 and its application to targeted protein ubiquitination” (Chemical Science, 2025).

Sequences of proteins named here, by UniProt entry; tags and fusion partners are left off. A change or cut given only in a name is not applied to a line headed by its entry.
UniProt Q15048: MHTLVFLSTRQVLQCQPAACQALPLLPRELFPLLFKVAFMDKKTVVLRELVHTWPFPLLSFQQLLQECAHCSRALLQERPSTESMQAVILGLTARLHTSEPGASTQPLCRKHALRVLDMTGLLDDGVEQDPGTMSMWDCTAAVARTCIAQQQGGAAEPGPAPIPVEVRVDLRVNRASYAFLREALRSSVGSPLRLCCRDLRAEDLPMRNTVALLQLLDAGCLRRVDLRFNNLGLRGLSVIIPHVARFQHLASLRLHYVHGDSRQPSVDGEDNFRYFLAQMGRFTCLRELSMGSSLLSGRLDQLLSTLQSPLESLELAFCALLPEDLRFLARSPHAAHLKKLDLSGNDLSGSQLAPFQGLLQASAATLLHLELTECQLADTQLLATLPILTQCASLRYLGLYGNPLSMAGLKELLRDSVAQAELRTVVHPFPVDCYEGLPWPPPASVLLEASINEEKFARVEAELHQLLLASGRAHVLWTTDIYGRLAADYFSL
UniProt Q32MZ4: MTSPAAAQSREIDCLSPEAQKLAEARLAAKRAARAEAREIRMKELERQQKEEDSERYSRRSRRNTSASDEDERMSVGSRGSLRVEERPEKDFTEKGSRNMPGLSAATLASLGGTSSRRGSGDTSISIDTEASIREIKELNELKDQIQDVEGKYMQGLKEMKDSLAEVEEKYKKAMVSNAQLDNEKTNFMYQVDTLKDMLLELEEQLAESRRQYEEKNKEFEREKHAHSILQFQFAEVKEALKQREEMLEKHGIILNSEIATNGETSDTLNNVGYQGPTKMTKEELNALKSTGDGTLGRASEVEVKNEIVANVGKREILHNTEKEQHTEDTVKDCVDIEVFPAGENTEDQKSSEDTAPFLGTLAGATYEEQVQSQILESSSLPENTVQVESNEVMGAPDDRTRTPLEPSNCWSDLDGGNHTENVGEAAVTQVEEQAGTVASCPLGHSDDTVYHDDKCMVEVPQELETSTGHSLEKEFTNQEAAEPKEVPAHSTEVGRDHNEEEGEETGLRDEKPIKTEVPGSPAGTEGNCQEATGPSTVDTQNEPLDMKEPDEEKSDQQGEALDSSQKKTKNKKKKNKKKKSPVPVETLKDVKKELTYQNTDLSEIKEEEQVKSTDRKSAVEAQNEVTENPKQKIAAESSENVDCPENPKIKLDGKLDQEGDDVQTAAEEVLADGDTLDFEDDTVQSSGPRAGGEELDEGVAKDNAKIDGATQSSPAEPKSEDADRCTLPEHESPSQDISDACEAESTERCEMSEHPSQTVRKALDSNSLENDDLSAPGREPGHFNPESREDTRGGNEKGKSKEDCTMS
UniProt Q9Y2L9: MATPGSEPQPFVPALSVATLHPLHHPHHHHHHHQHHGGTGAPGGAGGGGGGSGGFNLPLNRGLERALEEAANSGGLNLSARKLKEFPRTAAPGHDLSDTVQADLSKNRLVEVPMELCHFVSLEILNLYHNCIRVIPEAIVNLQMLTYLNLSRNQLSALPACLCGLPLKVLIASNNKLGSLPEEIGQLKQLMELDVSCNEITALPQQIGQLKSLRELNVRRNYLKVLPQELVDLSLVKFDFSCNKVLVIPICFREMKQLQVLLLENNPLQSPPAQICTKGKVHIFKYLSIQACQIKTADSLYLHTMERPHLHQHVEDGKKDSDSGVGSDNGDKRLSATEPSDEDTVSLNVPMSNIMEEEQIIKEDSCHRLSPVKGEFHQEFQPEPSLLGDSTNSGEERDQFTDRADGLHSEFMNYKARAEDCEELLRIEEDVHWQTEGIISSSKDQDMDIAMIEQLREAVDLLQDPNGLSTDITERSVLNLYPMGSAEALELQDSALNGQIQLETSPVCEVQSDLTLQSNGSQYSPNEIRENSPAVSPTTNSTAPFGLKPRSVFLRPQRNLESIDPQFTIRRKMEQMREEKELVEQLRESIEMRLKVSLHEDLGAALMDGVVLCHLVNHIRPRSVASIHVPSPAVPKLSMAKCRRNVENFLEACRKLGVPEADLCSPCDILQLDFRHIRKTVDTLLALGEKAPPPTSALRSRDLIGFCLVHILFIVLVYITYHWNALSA
UniProt P36776: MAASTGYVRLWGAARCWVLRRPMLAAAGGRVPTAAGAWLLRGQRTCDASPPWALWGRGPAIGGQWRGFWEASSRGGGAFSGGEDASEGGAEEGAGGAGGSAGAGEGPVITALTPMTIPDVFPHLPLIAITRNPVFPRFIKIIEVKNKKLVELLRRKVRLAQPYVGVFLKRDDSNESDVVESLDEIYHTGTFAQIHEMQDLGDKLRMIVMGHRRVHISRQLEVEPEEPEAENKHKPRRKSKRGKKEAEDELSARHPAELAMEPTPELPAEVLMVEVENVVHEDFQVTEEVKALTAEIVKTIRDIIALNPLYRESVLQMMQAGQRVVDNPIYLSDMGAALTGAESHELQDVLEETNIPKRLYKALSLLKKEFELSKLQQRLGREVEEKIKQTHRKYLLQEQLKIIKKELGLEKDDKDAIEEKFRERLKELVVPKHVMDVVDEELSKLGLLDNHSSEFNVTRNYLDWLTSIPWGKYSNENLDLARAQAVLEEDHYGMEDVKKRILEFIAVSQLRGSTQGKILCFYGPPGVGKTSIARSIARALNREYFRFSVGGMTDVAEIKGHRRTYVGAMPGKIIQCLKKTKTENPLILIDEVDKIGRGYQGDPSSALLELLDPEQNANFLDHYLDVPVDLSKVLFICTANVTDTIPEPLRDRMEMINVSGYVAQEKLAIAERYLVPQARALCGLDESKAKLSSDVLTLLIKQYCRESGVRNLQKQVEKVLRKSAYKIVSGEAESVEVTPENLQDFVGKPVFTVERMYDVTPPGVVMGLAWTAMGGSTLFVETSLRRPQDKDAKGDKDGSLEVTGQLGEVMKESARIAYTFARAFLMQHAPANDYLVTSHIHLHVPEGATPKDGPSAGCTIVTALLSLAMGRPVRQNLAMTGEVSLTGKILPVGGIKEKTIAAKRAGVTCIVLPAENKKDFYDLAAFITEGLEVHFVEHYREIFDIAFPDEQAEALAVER
UniProt Q9Y546: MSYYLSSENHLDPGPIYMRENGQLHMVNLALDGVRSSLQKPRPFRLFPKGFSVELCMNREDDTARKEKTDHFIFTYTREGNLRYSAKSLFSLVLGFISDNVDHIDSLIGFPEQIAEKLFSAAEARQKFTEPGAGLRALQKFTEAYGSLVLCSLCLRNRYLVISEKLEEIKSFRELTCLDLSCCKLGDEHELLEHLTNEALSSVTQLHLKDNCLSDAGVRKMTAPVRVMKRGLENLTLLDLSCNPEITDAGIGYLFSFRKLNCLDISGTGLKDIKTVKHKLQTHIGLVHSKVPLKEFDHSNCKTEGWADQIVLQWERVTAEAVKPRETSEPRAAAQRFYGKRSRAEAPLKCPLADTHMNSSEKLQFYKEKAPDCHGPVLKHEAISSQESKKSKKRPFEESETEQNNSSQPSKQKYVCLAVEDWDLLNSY
UniProt Q12907: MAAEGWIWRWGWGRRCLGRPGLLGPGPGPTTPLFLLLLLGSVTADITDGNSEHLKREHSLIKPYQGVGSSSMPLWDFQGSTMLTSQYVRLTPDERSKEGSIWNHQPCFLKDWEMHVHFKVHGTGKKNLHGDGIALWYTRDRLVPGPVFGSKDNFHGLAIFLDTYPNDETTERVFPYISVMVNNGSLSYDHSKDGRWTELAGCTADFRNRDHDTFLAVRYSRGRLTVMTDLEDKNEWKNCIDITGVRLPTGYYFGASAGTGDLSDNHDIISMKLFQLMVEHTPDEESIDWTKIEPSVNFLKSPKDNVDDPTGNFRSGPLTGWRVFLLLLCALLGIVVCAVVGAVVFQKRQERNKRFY
UniProt P49917: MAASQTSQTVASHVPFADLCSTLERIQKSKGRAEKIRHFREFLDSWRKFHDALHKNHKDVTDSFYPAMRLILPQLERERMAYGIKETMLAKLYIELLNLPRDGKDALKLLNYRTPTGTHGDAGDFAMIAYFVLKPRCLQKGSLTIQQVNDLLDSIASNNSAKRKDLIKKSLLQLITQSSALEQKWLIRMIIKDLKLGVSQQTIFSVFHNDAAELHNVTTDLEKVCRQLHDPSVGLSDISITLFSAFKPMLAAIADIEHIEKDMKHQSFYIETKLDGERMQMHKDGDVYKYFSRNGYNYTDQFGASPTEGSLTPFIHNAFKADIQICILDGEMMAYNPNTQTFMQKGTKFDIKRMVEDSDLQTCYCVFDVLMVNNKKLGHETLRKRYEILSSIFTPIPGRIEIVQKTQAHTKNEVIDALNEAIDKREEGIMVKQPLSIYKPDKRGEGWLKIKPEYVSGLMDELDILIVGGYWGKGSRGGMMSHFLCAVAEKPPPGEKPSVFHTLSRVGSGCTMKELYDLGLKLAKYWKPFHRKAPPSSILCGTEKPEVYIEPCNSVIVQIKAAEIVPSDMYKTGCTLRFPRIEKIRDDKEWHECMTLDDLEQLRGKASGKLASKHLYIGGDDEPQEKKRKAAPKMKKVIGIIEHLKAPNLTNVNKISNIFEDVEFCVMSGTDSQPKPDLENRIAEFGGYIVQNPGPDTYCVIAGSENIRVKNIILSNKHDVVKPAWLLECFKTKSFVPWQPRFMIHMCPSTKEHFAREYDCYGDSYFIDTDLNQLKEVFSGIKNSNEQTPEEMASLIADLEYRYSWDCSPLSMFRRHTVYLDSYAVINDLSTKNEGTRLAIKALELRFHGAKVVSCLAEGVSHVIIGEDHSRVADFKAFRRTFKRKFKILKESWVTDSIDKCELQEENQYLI
UniProt Q93052: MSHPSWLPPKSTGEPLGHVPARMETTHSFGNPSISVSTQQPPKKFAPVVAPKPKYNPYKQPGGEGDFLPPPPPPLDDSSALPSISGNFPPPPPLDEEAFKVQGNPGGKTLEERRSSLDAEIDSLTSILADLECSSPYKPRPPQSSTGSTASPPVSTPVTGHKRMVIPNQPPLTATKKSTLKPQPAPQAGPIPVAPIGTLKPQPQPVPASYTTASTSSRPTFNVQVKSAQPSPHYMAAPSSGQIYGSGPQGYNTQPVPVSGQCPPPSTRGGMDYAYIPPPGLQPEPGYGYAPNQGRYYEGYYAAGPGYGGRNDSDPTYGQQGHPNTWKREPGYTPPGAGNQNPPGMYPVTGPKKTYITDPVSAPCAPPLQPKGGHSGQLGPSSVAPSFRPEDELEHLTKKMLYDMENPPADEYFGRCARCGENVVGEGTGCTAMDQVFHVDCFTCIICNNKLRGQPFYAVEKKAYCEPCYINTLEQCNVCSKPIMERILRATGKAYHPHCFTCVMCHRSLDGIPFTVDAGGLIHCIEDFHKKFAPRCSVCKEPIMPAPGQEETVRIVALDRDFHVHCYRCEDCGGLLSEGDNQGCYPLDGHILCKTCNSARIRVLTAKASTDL
UniProt Q15345: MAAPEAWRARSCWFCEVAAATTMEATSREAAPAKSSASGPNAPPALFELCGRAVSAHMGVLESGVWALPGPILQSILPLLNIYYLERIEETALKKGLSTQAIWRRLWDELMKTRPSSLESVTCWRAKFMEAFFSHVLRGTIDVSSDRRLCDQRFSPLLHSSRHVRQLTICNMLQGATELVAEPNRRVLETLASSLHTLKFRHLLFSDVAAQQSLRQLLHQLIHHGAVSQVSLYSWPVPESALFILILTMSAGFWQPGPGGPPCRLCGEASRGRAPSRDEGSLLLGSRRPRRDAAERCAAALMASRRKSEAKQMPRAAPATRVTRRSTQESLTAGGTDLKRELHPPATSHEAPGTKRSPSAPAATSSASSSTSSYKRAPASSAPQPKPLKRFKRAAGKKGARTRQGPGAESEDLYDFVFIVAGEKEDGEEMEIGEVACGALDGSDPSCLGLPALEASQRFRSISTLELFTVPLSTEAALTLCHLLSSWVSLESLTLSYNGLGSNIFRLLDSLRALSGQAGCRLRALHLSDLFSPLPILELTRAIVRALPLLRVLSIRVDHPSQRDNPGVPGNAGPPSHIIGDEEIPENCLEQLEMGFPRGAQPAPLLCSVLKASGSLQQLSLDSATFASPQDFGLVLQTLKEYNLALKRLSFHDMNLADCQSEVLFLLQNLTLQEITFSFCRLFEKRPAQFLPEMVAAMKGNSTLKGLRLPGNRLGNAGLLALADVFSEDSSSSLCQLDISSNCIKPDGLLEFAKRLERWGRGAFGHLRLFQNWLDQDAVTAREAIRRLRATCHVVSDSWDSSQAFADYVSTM
UniProt Q96L50: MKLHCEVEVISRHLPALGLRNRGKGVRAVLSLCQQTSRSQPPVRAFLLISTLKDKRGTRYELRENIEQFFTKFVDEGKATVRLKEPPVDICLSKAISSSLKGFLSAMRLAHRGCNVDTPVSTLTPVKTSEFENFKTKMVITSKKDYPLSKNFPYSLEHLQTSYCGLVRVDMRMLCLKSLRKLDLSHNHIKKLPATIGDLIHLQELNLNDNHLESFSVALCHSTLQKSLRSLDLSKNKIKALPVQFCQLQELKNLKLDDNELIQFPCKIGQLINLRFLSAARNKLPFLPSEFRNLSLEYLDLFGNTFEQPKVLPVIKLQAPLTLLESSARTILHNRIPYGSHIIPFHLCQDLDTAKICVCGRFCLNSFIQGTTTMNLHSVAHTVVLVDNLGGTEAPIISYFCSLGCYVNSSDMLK

Compound in this test: Cc1cc(ccc1-c1ccccc1)C(=O)N1CCCN(CC1)C(=O)CCl [compound 10]
Briefly: probe-labelled cysteine peptide fold change vs DMSO (competition) (log2 fold change); higher = less target engagement (more negative = stronger competition). The settings on record: THP-1, incubation time: 4 h.

The other results are listed elsewhere or left out.
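Further: competitive profiling in live THP-1 cells: cysteine peptides tagged with an iodoacetamide desthiobiotin (IA-DTB) probe, intensity after compound treatment relative to DMSO-treated cells.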

As for “LPXN_O60711_237_VLTAMNQTWHPEHFFCSHCGEVFGAEGFHEK (UniProt O60711)”, the “probe-labelled cysteine peptide fold change” value came out at 0.0787 (10 µM) and 0.198 (50 µM).

In the case of “LSM4_Q9Y4Z0_32_NGETYNGHLVSCDNWMNINLR (UniProt Q9Y4Z0)”, the “probe-labelled cysteine peptide fold change” value (10 µM) was -0.0366 and the “probe-labelled cysteine peptide fold change” value (50 µM) was -0.127.

On to “LENG9_Q96B70_7_GSRPPCGATSSAR (UniProt Q96B70)”, for which the “probe-labelled cysteine peptide fold change” value (10 µM) was -0.158 and the “probe-labelled cysteine peptide fold change” value (50 µM) is 0.528.

“LRRC8A_Q8IWT6_684_IPTQLFYCR (UniProt Q8IWT6)”: the “probe-labelled cysteine peptide fold change” value (10 µM) was determined as 0.162 and the “probe-labelled cysteine peptide fold change” value (50 µM) came out at 0.2.

For the target “LRPPRC_P42704_952_LFECDR (UniProt P42704)”, the “probe-labelled cysteine peptide fold change” value (10 µM) is 0.147 and the “probe-labelled cysteine peptide fold change” value (50 µM) is 0.559.

As for “LRPPRC_P42704_130_SCGSLLPELKLEER (UniProt P42704)”, the “probe-labelled cysteine peptide fold change” value by setting is: (10 µM) -0.0916; (50 µM) -0.524.

Take “LRRC14_Q15048_221_NTVALLQLLDAGCLR (UniProt Q15048)”: the “probe-labelled cysteine peptide fold change” value (10 µM) worked out at 0.0115 and the “probe-labelled cysteine peptide fold change” value (50 µM) was -0.0233.

Turning to “LRRFIP1_Q32MZ4_14_EIDCLSPEAQK (UniProt Q32MZ4)”, the “probe-labelled cysteine peptide fold change” value (10 µM) is -0.0581 and the “probe-labelled cysteine peptide fold change” value (50 µM) is -0.404.

Turning to “LRCH1_Q9Y2L9_251_VLVIPICFR (UniProt Q9Y2L9)”, the “probe-labelled cysteine peptide fold change” value reads like this: (10 µM) -0.064; (50 µM) -0.161.

For “LONP1_P36776_909_RAGVTCIVLPAENK (UniProt P36776)”, the “probe-labelled cysteine peptide fold change” value came out at 0.341 (10 µM) and 0.602 (50 µM).

In the case of “LIMA1_Q9UHB6_393_ETCVECQK (UniProt Q9UHB6)”, the “probe-labelled cysteine peptide fold change” value reads like this: (10 µM) 0.179; (50 µM) 0.0554.

“LRRC42_Q9Y546_212_DNCLSDAGVR (UniProt Q9Y546)”: the “probe-labelled cysteine peptide fold change” value is -0.203 (10 µM) and -0.12 (50 µM).

For “LRRC14_Q15048_109_LHTSEPGASTQPLCR (UniProt Q15048)”, the “probe-labelled cysteine peptide fold change” value reads like this: (10 µM) 0.268; (50 µM) -0.21.

Consider “LONP1_P36776_909_AGVTCIVLPAENKK (UniProt P36776)”, for which the “probe-labelled cysteine peptide fold change” value is, setting by setting: (10 µM) -0.00288; (50 µM) -0.138.

Regarding “LPXN_O60711_152_GHCASCQKPIAGK (UniProt O60711)”, the “probe-labelled cysteine peptide fold change” value is -0.0607 (10 µM) and -0.133 (50 µM).

Consider “LGALS3BP_Q08380_561_STSSFPCPAGHFNGFR (UniProt Q08380)”, for which the “probe-labelled cysteine peptide fold change” value was -0.203 (10 µM) and -0.0213 (50 µM).

On to “LTN1_O94822_1745_KFHSACLYK (UniProt O94822)”, for which the “probe-labelled cysteine peptide fold change” value runs as follows: (10 µM) -0.157; (50 µM) -0.376.

For the target “LSM12_Q3MHD2_43_CPSSSGKPNHADILLINLQYVSEVEIINDRTETPPPLASLNVSK (UniProt Q3MHD2)”, the “probe-labelled cysteine peptide fold change” value stood at 0.046 (10 µM) and 0.0881 (50 µM).

With “LMAN2_Q12907_107_EGSIWNHQPCFLK (UniProt Q12907)”, the “probe-labelled cysteine peptide fold change” value is -0.057 (10 µM) and 0.076 (50 µM).

Take “LIG4_P49917_510_VGSGCTMK (UniProt P49917)”: the “probe-labelled cysteine peptide fold change” value runs as follows: (10 µM) -0.107; (50 µM) -0.202.

For “LIMD1_Q9UGP4_148_HGSQDCGSR (UniProt Q9UGP4)”, the “probe-labelled cysteine peptide fold change” value runs as follows: (10 µM) 0.145; (50 µM) -0.749.

Take “LMNB2_Q03252_212_CQSLQEELDFRK (UniProt Q03252)”: the “probe-labelled cysteine peptide fold change” value (10 µM) is 0.0967 and the “probe-labelled cysteine peptide fold change” value (50 µM) was -0.0384.

In the case of “LIN54_Q6MZP7_729_CLMSVINSAGK (UniProt Q6MZP7)”, the “probe-labelled cysteine peptide fold change” value was 0.193 (10 µM) and -0.0473 (50 µM).

With “LIMK1_P53667_49_IYDGQYLQALNADWHADCFR (UniProt P53667)”, the “probe-labelled cysteine peptide fold change” value turned out to be 0.17 (10 µM) and 0.0155 (50 µM).

Take “LPP_Q93052_566_IVALDRDFHVHCYR (UniProt Q93052)”: the “probe-labelled cysteine peptide fold change” value is -0.0149 (10 µM) and -0.255 (50 µM).

With “LRRFIP1_Q32MZ4_750_CEMSEHPSQTVR (UniProt Q32MZ4)”, the “probe-labelled cysteine peptide fold change” value was -0.371 (10 µM) and -0.453 (50 µM).

Regarding “LIG1_P18858_719_DSCEGLMVK (UniProt P18858)”, the “probe-labelled cysteine peptide fold change” value (10 µM) was -0.135 and the “probe-labelled cysteine peptide fold change” value (50 µM) is -0.04.

With “LPCAT1_Q8NF37_330_LPADTCLLEFAR (UniProt Q8NF37)”, the “probe-labelled cysteine peptide fold change” value (10 µM) was 0.0312 and the “probe-labelled cysteine peptide fold change” value (50 µM) is -0.0673.

“LILRB1_Q8NHL6_49_CQGGQETQEYR (UniProt Q8NHL6)”: the “probe-labelled cysteine peptide fold change” value is -0.0272 (10 µM) and 0.248 (50 µM).

In the case of “LGALS1_P09382_3+17_ACGLVASNLNLKPGECLR (UniProt P09382)”, the “probe-labelled cysteine peptide fold change” value reads like this: (10 µM) -0.0869; (50 µM) -0.309.

For “LPP_Q93052_566_DFHVHCYR (UniProt Q93052)”, the “probe-labelled cysteine peptide fold change” value (10 µM) worked out at 0.0696 and the “probe-labelled cysteine peptide fold change” value (50 µM) amounted to 0.0526.

Turning to “LRRC41_Q15345_297_CAAALMASR (UniProt Q15345)”, the “probe-labelled cysteine peptide fold change” value was -0.357 (10 µM) and -0.525 (50 µM).

For “LPIN2_Q92539_322_DASMEDTVCTIVKPK (UniProt Q92539)”, the “probe-labelled cysteine peptide fold change” value is -0.301 (10 µM) and -0.497 (50 µM).

For “LRCH1_Q9Y2L9_421_AEDCEELLR (UniProt Q9Y2L9)”, the “probe-labelled cysteine peptide fold change” value is -0.171 (10 µM) and 0.00799 (50 µM).

In the case of “LRP1_Q07954_2404_CEYDGSHR (UniProt Q07954)”, the “probe-labelled cysteine peptide fold change” value (10 µM) is -0.124 and the “probe-labelled cysteine peptide fold change” value (50 µM) is -0.29.

With “LRCH3_Q96II8_102_LSEIPIEACHFVSLENLNLYQNCIR (UniProt Q96II8)”, the “probe-labelled cysteine peptide fold change” value runs as follows: (10 µM) 0.126; (50 µM) 0.0178.

As to “LRBA_P50851_832_NSPQCPESMEVR (UniProt P50851)”, the “probe-labelled cysteine peptide fold change” value was -0.223 (10 µM) and 0.0622 (50 µM).

On to “LIMS1_P48059_240+252+255_GLAYCETHYNQLFGDVCFHCNR (UniProt P48059)”, for which the “probe-labelled cysteine peptide fold change” value is, setting by setting: (10 µM) -0.111; (50 µM) -0.492.

Regarding “LIG4_P49917_20_AASQTSQTVASHVPFADLCSTLER (UniProt P49917)”, the “probe-labelled cysteine peptide fold change” value is -0.112 (10 µM) and -0.26 (50 µM).

With “LGALS9_O00182_259_FHINLCSGNHIAFHLNPR (UniProt O00182)”, the “probe-labelled cysteine peptide fold change” value reads like this: (10 µM) -0.14; (50 µM) -0.00102.

Turning to “LRR1_Q96L50_5_LHCEVEVISR (UniProt Q96L50)”, the “probe-labelled cysteine peptide fold change” value is -0.12 (10 µM) and 0.0535 (50 µM).
